Patent publication US7541342B2, “Use of PKC-activating compounds as cardioprotectants and as apoptosis-inducing anti-tumor agents” (University of Tennessee Research Foundation, priority 2005, dated 2009)
For at least one compound, name, drawing or mass did not settle the structure.

Test system: 32D.3 cells
Experiment: Mitochondrial membrane depolarization ([…] staining)
Format: cell-based, murine
Conditions: CsA 5 μM 4 hr; betulinic acid 15 μg/mL 5 hr

C=C(C)[C@@H]1CC[C@]2(C(=O)O)CC[C@]3(C)[C@H](CC[C@@H]4[C@@]5(C)CC[C@H](O)C(C)(C)[C@@H]5CC[C@]43C)[C@@H]12 [Betulinic acid, betulinic acid] was tested. Which “effect on Δψm, agent alone” value did it give?
Its value is “induces Δψm”.
